Reference: patent publication US9637519B2 (CAREGEN CO., LTD., priority 2013, dated 2017)
Ends that are not written are not given here.

Test: general procedure: peptide synthesis; chloro trityl chloride resin
Conditions: whole synthesis

WVPYQARVPYPR
crude mass: 0.85 g
crude yield (scale of the general procedure 700 mg resin): 89.9%
